Reference: patent US9441014B2, “Skin permeating and cell entering (SPACE) peptides and methods of use thereof” (The Regents of the University of California, priority 2010, dated 2016)

Tested on: porcine skin
Assay: In vitro phage display screen for skin penetration (receiver compartment)
Conditions: five rounds of selection

Sequence | frequency of occurrence of sequence in phage display screen
ACHSALTKHCG (identified using phage display) [AC-HSALTKH-CG] | high frequency
ACSTHFIDTCG (identified using phage display) [AC-STHFIDT-CG] | relatively high frequency in rounds 4 and 5
